Measurements from the supplement of paper PMC8728848.
This is one part of the list.

Columns and labels:
Experiment in all cases: glycan array binding signal (z-score within array); higher = stronger binding
Details in all cases: glycan notation: IUPAC condensed, linker removed
Gal3S6S(b1-4)GlcNAc = target: Gal3S6S(b1-4)GlcNAc
Procedure, shortened: (§1)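 The binding signal is a Z-score computed within each array. Data were drawn from 3228 arrays in the Consortium for Functional Glycomics database, restricted to those with a known protein sequence. Scores were averaged over arrays of the same protein sequence at different concentrations or buffers, and over linkers, and negative values can be taken as non-binding.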

Gal3S6S(b1-4)GlcNAc6S = target: Gal3S6S(b1-4)GlcNAc6S
Procedure, shortened: as §1

Gal4S(b1-4)GlcNAc = target: Gal4S(b1-4)GlcNAc
Procedure, shortened: as §1

Gal4S6S(b1-4)GlcNAc = target: Gal4S6S(b1-4)GlcNAc
Procedure, shortened: as §1

Gal6P(b1-4)GlcNAc = target: Gal6P(b1-4)GlcNAc
Procedure, shortened: as §1

Gal6S(b1-3)GlcNAc = target: Gal6S(b1-3)GlcNAc
Procedure, shortened: as §1

Gal6S(b1-3)GlcNAc6S = target: Gal6S(b1-3)GlcNAc6S
Procedure, shortened: as §1

Gal6S(b1-4)Glc = target: Gal6S(b1-4)Glc
Procedure, shortened: as §1

Gal6S(b1-4)Glc6S = target: Gal6S(b1-4)Glc6S
Procedure, shortened: as §1

Gal6S(b1-4)GlcNAc = target: Gal6S(b1-4)GlcNAc
Procedure, shortened: as §1

Gal6S(b1-4)GlcNAc6S = target: Gal6S(b1-4)GlcNAc6S
Procedure, shortened: as §1

GalNAc(a1-3)Gal = target: GalNAc(a1-3)Gal
Procedure, shortened: as §1

GalNAc(a1-3)GalNAc = target: GalNAc(a1-3)GalNAc
Procedure, shortened: as §1

[1] = target: GalNAc(a1-3)GalNAc(a1-3)Gal(a1-4)Gal(b1-4)GlcNAc
Procedure, shortened: as §1

[2] = target: GalNAc(a1-3)GalNAc(b1-3)Gal(a1-4)Gal(b1-4)Glc
Procedure, shortened: as §1

GalNAc(b1-3)Gal = target: GalNAc(b1-3)Gal
Procedure, shortened: as §1

[3] = target: GalNAc(b1-3)Gal(a1-4)Gal(b1-4)GlcNAc
Procedure, shortened: as §1

[4] = target: GalNAc(b1-3)Gal(a1-4)Gal(b1-4)GlcNAc(b1-3)Gal(b1-4)Glc
Procedure, shortened: as §1

[5] = target: GalNAc(b1-3)Gal(a1-6)Gal(b1-4)Glc
Procedure, shortened: as §1

GalNAc(b1-3)GalNAc = target: GalNAc(b1-3)GalNAc
Procedure, shortened: as §1

GalNAc(b1-3)GlcNAc = target: GalNAc(b1-3)GlcNAc
Procedure, shortened: as §1

GalNAc(b1-4)Gal(b1-4)Glc = target: GalNAc(b1-4)Gal(b1-4)Glc
Procedure, shortened: as §1

GalNAc(b1-4)GlcNAc = target: GalNAc(b1-4)GlcNAc
Procedure, shortened: as §1

[6] = target: GalNAc(b1-4)GlcNAc(b1-2)Man
Procedure, shortened: as §1

[7] = target: GalNAc(b1-4)GlcNAc(b1-2)Man(a1-3)[GalNAc(b1-4)GlcNAc(b1-2)Man(a1-6)]Man(b1-4)GlcNAc(b1-4)GlcNAc
Procedure, shortened: as §1

[8] = target: GalNAc(b1-4)GlcNAc(b1-3)GalNAc(b1-4)GlcNAc
Procedure, shortened: as §1

GalNAc(b1-4)GlcNAc6S = target: GalNAc(b1-4)GlcNAc6S
Procedure, shortened: as §1

GalNAc(b1-6)GalNAc = target: GalNAc(b1-6)GalNAc
Procedure, shortened: as §1

GalNAc3S(b1-4)GlcNAc = target: GalNAc3S(b1-4)GlcNAc
Procedure, shortened: as §1

GalNAc3S(b1-4)GlcNAc3S = target: GalNAc3S(b1-4)GlcNAc3S
Procedure, shortened: as §1

[9] = target: GalNAc3S(b1-4)[Fuc(a1-3)]GlcNAc
Procedure, shortened: as §1

GalNAc4S6S(b1-4)GlcNAc = target: GalNAc4S6S(b1-4)GlcNAc
Procedure, shortened: as §1

GalNAc6S(b1-4)GlcNAc = target: GalNAc6S(b1-4)GlcNAc
Procedure, shortened: as §1

Glc(a1-4)Glc = target: Glc(a1-4)Glc
Procedure, shortened: as §1

[10] = target: Glc(a1-4)Glc(a1-4)Glc(a1-4)Glc
Procedure, shortened: as §1

Glc(a1-6)Glc(a1-6)Glc = target: Glc(a1-6)Glc(a1-6)Glc
Procedure, shortened: as §1

[11] = target: Glc(a1-6)Glc(a1-6)Glc(a1-6)Glc
Procedure, shortened: as §1

Glc(b1-4)Glc = target: Glc(b1-4)Glc
Procedure, shortened: as §1

B1: Protein L(B1-B4) (Finegoldia magna), Q51912 (protein)
chain: KEETPETPETDSEEEVTIKANLIFANGSTQTAEFKGTFEKATSEAYAYADTLKKDNGEYTVDVADKGYTLNIKFAGKEKTPEEPKEEVTIKANLIYADGKTQTAEFKGTFEEATAEAYRYADALKKDNGEYTVDVADKGYTLNIKFAGKEKTPEEPKEEVTIKANLIYADGKTQTAEFKGTFEEATAEAYRYADLLAKENGKYTVDVADKGYTLNIKFAGKEKTPEEPKEEVTIKANLIYADGKTQTAEFKGTFAEATAEAYRYADLLAKENGKYTADLEDGGYTINIRFAG
In the case of B1, the “glycan array binding signal (z-score)” value (Gal3S6S(b1-4)GlcNAc) is reported as -0.513, the “glycan array binding signal (z-score)” value (Gal3S6S(b1-4)GlcNAc6S) is reported as -0.561 and the “glycan array binding signal (z-score)” value (Gal4S(b1-4)GlcNAc) is reported as -0.861. For the same binder, the “glycan array binding signal (z-score)” value (Gal4S6S(b1-4)GlcNAc) was -0.094, the “glycan array binding signal (z-score)” value (Gal6P(b1-4)GlcNAc) was -1.08 and the “glycan array binding signal (z-score)” value (Gal6S(b1-3)GlcNAc) was -0.656. For the same binder, the “glycan array binding signal (z-score)” value (Gal6S(b1-3)GlcNAc6S) was -1.01, the “glycan array binding signal (z-score)” value (Gal6S(b1-4)Glc) was -0.34 and the “glycan array binding signal (z-score)” value (Gal6S(b1-4)Glc6S) was 0.409. For the same binder, the “glycan array binding signal (z-score)” value (Gal6S(b1-4)GlcNAc) was -0.729, the “glycan array binding signal (z-score)” value (Gal6S(b1-4)GlcNAc6S) was -0.529 and the “glycan array binding signal (z-score)” value (GalNAc(a1-3)Gal) was -0.351. For the same binder, the “glycan array binding signal (z-score)” value (GalNAc(a1-3)GalNAc) was -1.02, the “glycan array binding signal (z-score)” value [1] was -0.615 and the “glycan array binding signal (z-score)” value [2] was -0.59. The “glycan array binding signal (z-score)” value (GalNAc(b1-3)Gal) was -0.224, the “glycan array binding signal (z-score)” value [3] was -0.034 and the “glycan array binding signal (z-score)” value [4] was -1.17. For the same binder, the “glycan array binding signal (z-score)” value [5] was -0.554, the “glycan array binding signal (z-score)” value (GalNAc(b1-3)GalNAc) was -0.834 and the “glycan array binding signal (z-score)” value (GalNAc(b1-3)GlcNAc) was -0.897. For the same binder, the “glycan array binding signal (z-score)” value (GalNAc(b1-4)Gal(b1-4)Glc) was -0.314, the “glycan array binding signal (z-score)” value (GalNAc(b1-4)GlcNAc) was -0.943 and the “glycan array binding signal (z-score)” value [6] was -0.339. For the same binder, the “glycan array binding signal (z-score)” value [7] was 1.49, the “glycan array binding signal (z-score)” value [8] was -0.223 and the “glycan array binding signal (z-score)” value (GalNAc(b1-4)GlcNAc6S) was -0.969. The “glycan array binding signal (z-score)” value (GalNAc(b1-6)GalNAc) was -0.531, the “glycan array binding signal (z-score)” value (GalNAc3S(b1-4)GlcNAc) was -1.09 and the “glycan array binding signal (z-score)” value (GalNAc3S(b1-4)GlcNAc3S) was -0.876. For the same binder, the “glycan array binding signal (z-score)” value [9] was 0.473, the “glycan array binding signal (z-score)” value (GalNAc4S6S(b1-4)GlcNAc) was -0.886 and the “glycan array binding signal (z-score)” value (GalNAc6S(b1-4)GlcNAc) was -1.1. For the same binder, the “glycan array binding signal (z-score)” value (Glc(a1-4)Glc) was -0.221, the “glycan array binding signal (z-score)” value [10] was -0.236 and the “glycan array binding signal (z-score)” value (Glc(a1-6)Glc(a1-6)Glc) was -0.342. The “glycan array binding signal (z-score)” value [11] was -0.375 and the “glycan array binding signal (z-score)” value (Glc(b1-4)Glc) was -0.438.
